These are yes or no findings as the source states them, for the method shown.
Target: constitutively active Rap1 mutant (tested with FRB/Kin^TOR) (Dictyostelium) (UniProt P18613)
Assay: pull-down; GFP-FRB/Kin^TOR with active GST-fused GTPase (GppNHp-loaded or constitutively active mutant), 25 ug of each, 50 mM Tris-Cl, 150 mM NaCl, 5 mM MgCl2, 1 mM beta-mercaptoethanol, pH 7.5; GSH resin; washes with 500 mM NaCl; GFP and GST immunoblotting; both purified

By UniProt entry, the sequences of proteins in these tests, tags left out. Where a name states a change or a piece, a line headed by the entry shows the natural chain unless it says otherwise. Residues count along the entry.
UniProt P18613: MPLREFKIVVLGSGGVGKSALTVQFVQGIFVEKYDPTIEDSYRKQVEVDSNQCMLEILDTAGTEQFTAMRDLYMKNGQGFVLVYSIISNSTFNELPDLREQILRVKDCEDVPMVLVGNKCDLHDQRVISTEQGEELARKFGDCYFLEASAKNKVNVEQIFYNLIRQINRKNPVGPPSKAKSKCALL
UniProt Q86C65, residues 1820-2380: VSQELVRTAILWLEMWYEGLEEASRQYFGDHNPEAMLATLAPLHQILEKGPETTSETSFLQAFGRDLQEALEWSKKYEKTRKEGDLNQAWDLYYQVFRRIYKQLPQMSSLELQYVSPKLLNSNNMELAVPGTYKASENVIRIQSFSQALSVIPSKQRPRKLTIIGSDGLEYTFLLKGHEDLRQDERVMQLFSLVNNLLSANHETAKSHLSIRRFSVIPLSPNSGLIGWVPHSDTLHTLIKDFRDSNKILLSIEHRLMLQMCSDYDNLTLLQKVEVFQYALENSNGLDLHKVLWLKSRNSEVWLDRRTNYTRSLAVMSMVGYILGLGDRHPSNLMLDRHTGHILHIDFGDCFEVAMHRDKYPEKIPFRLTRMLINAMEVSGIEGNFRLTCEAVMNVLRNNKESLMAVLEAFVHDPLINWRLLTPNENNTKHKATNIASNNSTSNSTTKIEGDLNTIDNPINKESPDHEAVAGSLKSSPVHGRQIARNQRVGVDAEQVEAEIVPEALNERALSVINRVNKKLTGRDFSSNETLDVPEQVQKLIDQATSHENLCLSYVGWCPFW

- binding: no binding
Substance: GFP-fused TOR catalytic domain (FRB/Kin^TOR, aa 1820-2380) (from UniProt Q86C65 1820-2380) (domain or fragment)
